The subject of this assay is CRE reporter. Description: cells. To be noted: Homo sapiens, PC-3, 6 h, read-out: IC50, inhibited expression of the CRE reporter. How it is done: Dasatinib is a broad kinase inhibitor targeting the BCR-ABL oncogenic pathway, thereby reducing the downstream activation of STAT5. K-562 cells transiently expressing a STAT5 reporter (2×10^5 cells/mL) were treated with serial dilution of dasatinib or a derivative having cleavable chloroalkane tag (+/−a PRG) for 24 hours and then tested for expression of the STAT5 reporter.

The structures appear in SMILES notation.

Regarding `CC(C)NCC(O)COc1cccc2ccccc12` (stereo not shown) [propranolol], the IC50 (usually the concentration at which inhibition is half-maximal) was found to be 96 nM.

(Values after patent publication US11913944B2, “Photoaffinity probes” (Promega Corporation, priority 2019, dated 2024).)
